# According to PMC3649978:
# Target: Halo-tagged p104-CT_(SKNN)-V5 (p104 residues 470-871, SKIP motif mutated to SKNN) (Theileria annulata)
# Assay: pull-down; Halo-tagged p104 fragments (C-terminal V5) linked to Halolink resin; about 500 µg lysate of COS-7 cells (untransfected, or expressing EB1-GFP fragments) incubated overnight; 5 washes with 500 mM NaCl and 0.01% tween-20; elution by TEV protease; immunoblot with anti-EB1, anti-GFP and anti-V5; only the target purified
binder,measurement,value
"EB1_(125–268)-GFP (mouse EB1 residues 125-268) (domain or fragment, UniProt Q61166 125-268) DPVAARQGQETAVAPSLVAPALSKPKKPLGSSTAAPQRPIATQRTTAAPKAGPGMVRKNPGVGNGDDEAAELMQQVKVLKLTVEDLEKERDFYFGKLRNIELICQENEGENDPVLQRIVDILYATDEGFVIPDEGGPQEEQEEY",binding,no binding
"EB1_(1–133)-GFP (mouse EB1 residues 1-133) (domain or fragment, UniProt Q61166 1-133) MAVNVYSTSVTSDNLSRHDMLAWINESLQLNLTKIEQLCSGAAYCQFMDMLFPGSIALKKVKFQAKLEHEYIQNFKILQAGFKRMGVDKIIPVDKLVKGKFQDNFEFVQWFKKFFDANYDGKEYDPVAARQGQ",binding,no binding

# Results are given in words; binding and its absence hold for the method and conditions named. In cells and extracts the contact can be indirect. Tags and fused reporters may be left off the sequences shown.
